# Laboratory results from PubChem BioAssay AID2685 (National Center for Advancing Translational Sciences (NCATS), 2010).
# The list shows a part of the results. The main result of the screen is listed elsewhere. These columns were measured beside it and carry no call. Compounds called inactive in the main read-out are mostly missing here. Potencies come from curve fits of mixed quality, noted in brackets.
# Assay: qHTS Assay for Lipid Storage Modulators in Drosophila S3 Cells;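 as to cell number change: cells counted by Cell Tracker Red CMTPX staining in the red channel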
# Conditions: BODIPY lipid droplet fluorescence, 18-24 h; for cell number change: measured here: cell count max response, cells fed with added oleic acid
# Outline: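 Drosophila S3 cells got compounds at several concentrations plus oleic acid (400 uM solution). Laser-scanning cytometry with 488 nm excitation read lipid droplets at 500-530 nm and cells at 575-640 nm. Percent activity was relative to 20 uM Triacsin C.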
# [1] = measured here: cell number channel AC50, cells fed with added oleic acid
# [2] = measured here: lipid fluorescence (Fed channel) AC50, cells fed with added oleic acid
Structure (SMILES),cell number change,AC50 [1],AC50 [2]
CC(=O)c1ccc(NC(=O)C2CCN(S(=O)(=O)c3cccnc3)CC2)cc1,17.9%,"0.0116 µM [rising, full curve, poor fit]",
Cc1cc(S(=O)(=O)N2CCC3(CC2)OCCO3)c(C)cc1Cl,30.1%,"7.31 µM [rising, partial curve]","6.51 µM [rising, single point]"
COC(=O)c1c(NC(=O)/C=C/C(=O)O)sc(C)c1-c1ccc(C)cc1,-46.7%,"9.2 µM [falling, single point]",
CCOCC(=O)Nc1cc(Cl)ccc1C,4.06%,,"9.2 µM [rising, partial curve, poor fit]"
Cc1cc(C(=O)COC(=O)c2ccc(O)cc2O)c(C)n1-c1ccc(OC(F)F)cc1,-41.1%,"5.8 µM [falling, partial curve]","0.291 µM [falling, partial curve, poor fit]"
CCC(C)(C(=O)NC1CCCCC1)N(C(=O)CC1NC(=O)NC1=O)c1c(C)n(C)n(-c2ccccc2)c1=O (centres undefined),108%,,"6.51 µM [rising, partial curve, poor fit]"
CCOc1ccc(C2C(C(=O)c3ccco3)=C(O)C(=O)N2CCCn2ccnc2)cc1OC (centres undefined),56.4%,"16.4 µM [rising, single point]",
CC(=O)Nc1ccc(S(=O)(=O)NC2(C(F)(F)F)NC(=O)N(c3ccc(Cl)cc3)C2=O)cc1 (centres undefined),-0.731%,,
COc1ccccc1NC(=S)NC(=O)C1CC1,0.645%,,"0.731 µM [rising, full curve, poor fit]"
O=C(COc1ccccc1Cl)Nc1ccc(C(=O)O)cc1NC(=O)COc1ccccc1Cl,5.07%,,
CC(C)(C)NC(=O)C(c1ccc(OCC(N)=O)cc1)N(C(=O)c1cccnc1)C1CC1 (centres undefined),-2.3%,,"2.91 µM [rising, partial curve]"
CCCn1cnc2sc(C(N)=O)c(C)c2c1=O,,,"1.46 µM [rising, partial curve]"
[O-][n+]1onc2c1CCC(=N/O)/C2=N\Nc1ccccc1,-65.7%,"18.4 µM [falling, single point]",
CCC1=C(c2cc(OC)c(OC)c(OC)c2)C2(CCCC2)C(=O)O1,12%,,"23.1 µM [rising, single point]"
CCc1ccc(-c2nc(NC(=S)NC(=O)c3cccs3)sc2C)cc1,,,"6.51 µM [rising, single point]"
S=C(NCCSCc1ccccc1Cl)Nc1ccccc1,125%,,
Cn1c(=N)n(CC(O)c2cccs2)c2ccccc21 (centres undefined),13.5%,,"29.1 µM [rising, single point]"
CCOc1ccc(C2CC(c3ccc(F)cc3)n3ncnc3N2)cc1 (centres undefined),30.2%,"1.46 µM [rising, full curve, poor fit]","2.31 µM [rising, partial curve]"
O=C(O)COc1ccccc1/C=N/NC(=O)CNC(=O)c1ccco1,,,"1.3 µM [falling, single point]"
COc1ccc(CC(=O)N2CCN(c3ccccc3F)CC2)cc1OC,5.96%,,"0.92 µM [falling, single point]"

Structure (SMILES),cell number change,AC50 [1],AC50 [2]
CN1CCN(c2ccc(CNS(=O)(=O)c3ccc(F)cc3Cl)cc2)CC1,25.8%,,"29.1 µM [rising, single point]"
COc1ccc(N(CC(=O)NCCSc2ccccn2)S(=O)(=O)c2ccc(C)cc2)cc1OC,10.8%,,"2.59 µM [falling, partial curve]"
Cc1cccc(N2C(=O)/C(=C/c3cccnc3)SC2=S)c1,-37.9%,"2.31 µM [falling, full curve, poor fit]",
CCC(OC(=O)C(NC(=O)c1ccccc1)c1ccccc1)C(=O)Nc1cc(C)on1 (centres undefined),1.41%,,
CCN1CCN(CC(=O)N2CCCC(C(=O)c3ccc(Oc4ccccc4)cc3)C2)CC1 (centres undefined),-18.4%,,"29.1 µM [falling, single point]"
CC(C)(C)c1cc(NC(=O)c2cccc([N+](=O)[O-])c2)no1,-24.9%,,"1.16 µM [falling, single point]"
O=C(/C=C/c1ccc2ccccc2n1)c1cc(Br)ccc1O,17.6%,,"18.4 µM [falling, single point]"
CCN1CCN(c2cc(C)c3cc(NC(=O)c4ccc(Br)o4)ccc3n2)CC1,-47.5%,,
CC1(c2cccc(Br)c2)NC(=O)N(CC(=O)NC2CCCCC2)C1=O (centres undefined),-8.52%,,"0.0651 µM [rising, partial curve, poor fit]"
COc1cccc(NC(=O)CSc2nnc(Cc3cccs3)n2-c2ccc(C)cc2)c1,76.5%,"5.17 µM [rising, partial curve, poor fit]","6.51 µM [rising, single point]"
COc1cc(/C=N\NC(=O)CNC(=O)C2COc3ccccc3O2)ccc1O (centres undefined),-38.1%,"0.116 µM [falling, full curve, poor fit]","0.092 µM [falling, full curve, poor fit]"
CCOC(=O)c1c(NC(=O)COC(=O)c2ccccn2)sc(C)c1C,7.84%,,"6.51 µM [rising, single point]"
Cc1ccc(S(=O)(=O)N(CCC(=O)N2CCOCC2)c2ccccc2)cc1,25%,,"29.1 µM [rising, single point]"
CCOC(=O)C1=C(C)Nc2nc(=S)[nH]n2C1c1ccc(Cl)cc1 (centres undefined),126%,"20.6 µM [rising, single point]","29.1 µM [rising, partial curve]"
CNC(=O)C(NC(=O)Nc1ccc(C)cc1)C(C)(C)C (centres undefined),6.05%,"3.66 µM [falling, single point]",
O=C(O)CS(=O)(=O)c1ccc(C(F)(F)F)cn1,-24.8%,,"9.2 µM [falling, partial curve, poor fit]"
COc1ccc(C2N(c3ccc(F)cc3)C(=O)C3CCCN32)cc1 (centres undefined),15.9%,,"3.26 µM [rising, single point]"
COc1ccc(CNC(=O)C(=O)NCC2OCCN2S(=O)(=O)c2ccc(OC)c(OC)c2)cc1 (centres undefined),1.08%,,
Cc1ccc(NC(=O)CCNS(=O)(=O)c2ccc3c(c2)oc(=O)n3C)c(C)c1,31.6%,"0.92 µM [rising, full curve, poor fit]","0.82 µM [rising, partial curve]"
O=C(NC(=S)Nc1ccc(N2CCOCC2)cc1)c1ccc2c(c1)OCCO2,-16%,,"2.91 µM [rising, partial curve, poor fit]"

Structure (SMILES),cell number change,AC50 [1],AC50 [2]
O=C(CSc1nnc(-c2ccc(OC(F)F)cc2)o1)NCc1cccs1,57.3%,"29.1 µM [rising, single point]","29.1 µM [rising, partial curve]"
CC1CCCCN1S(=O)(=O)c1ccc(C(=O)Nc2sccc2C(N)=O)cc1 (centres undefined),6.86%,,"29.1 µM [falling, single point]"
Cc1ccc(C(=O)NCc2ccccc2F)cc1S(=O)(=O)N1CCCC1,-1.32%,,
COC(=O)COc1ccc(C(=O)OC)cc1,-5.71%,"6.51 µM [falling, single point]","6.51 µM [falling, single point]"
CC(=O)Nc1ccc(S(=O)(=O)N(C)CC(=O)OC(C)C(=O)NC2CCCCC2)cc1 (centres undefined),7.5%,,
OCCCCCNc1ncnc2ccccc12,-23.7%,,"20.6 µM [falling, single point]"
COc1ccccc1C(=O)Nc1ccnn1C1CCN(C(=O)C(C)(C)C)CC1,-5.5%,,
CCCc1nnc(NC(=O)CCC(=O)NC2CCCc3ccccc32)s1 (centres undefined),28.8%,,"6.51 µM [rising, full curve, poor fit]"
CSc1ccccc1NC(=O)CN(C)CC(=O)Nc1ccc(N2CCOCC2)cc1,,"6.51 µM [rising, single point]","2.91 µM [rising, full curve, poor fit]"
Cc1ncc(CN2CCCC(C(=O)Nc3ccc(-n4ccnc4C)cc3)C2)cn1 (centres undefined),1.15%,,
O=C(Nc1ccccc1)C1CCN(C(=O)c2ccco2)CC1,14.1%,,"0.116 µM [falling, single point]"
O=C(O)C(NS(=O)(=O)c1ccccc1)C(O)c1ccccc1 (centres undefined),8.8%,,
O=C(/C(=C/c1ccccc1)n1cncn1)c1ccc(Cl)cc1Cl,-7.8%,,"25.9 µM [falling, single point]"
CC(C)(C)c1ccc(C(=O)N2CCN(c3ncccn3)CC2)cc1,4.26%,,"6.51 µM [rising, single point]"
Cc1cc(C(=O)CCC(=O)Nc2ncccc2C)c(C)s1,-53%,"29.1 µM [falling, single point]","20.6 µM [falling, single point]"
CCOc1ccc(NC(=O)CC2C(=O)N(c3ccc(OC)cc3)C(=O)N2Cc2ccc(OC)cc2)cc1 (centres undefined),22%,"0.58 µM [rising, single point]","6.51 µM [rising, single point]"
CCCC(=O)NC(=S)Nc1cccc(Cl)c1N1CCCCC1,-125%,"20.6 µM [falling, single point]","29.1 µM [falling, single point]"
COc1ccccc1C/C(N)=N/OC(=O)COc1cccc2ccccc12,-16.4%,,"6.51 µM [falling, full curve, poor fit]"
O=c1[nH]c2cc(S(=O)(=O)CCO)ccc2o1,-3.93%,,"4.61 µM [falling, single point]"
CCCCCCCn1c(C)nnc1-c1cnn(C)c1N,44.3%,"16.4 µM [rising, single point]","16.4 µM [rising, single point]"

# In another format: results already given
Structure (SMILES)	cell number change	AC50 [1]	AC50 [2]
CC(C)(C)c1cc(NC(=O)c2cccc([N+](=O)[O-])c2)no1	-24.9%		1.16 µM [falling, single point]
CCOC(=O)c1c(NC(=O)COC(=O)c2ccccn2)sc(C)c1C	7.84%		6.51 µM [rising, single point]
O=C(O)CS(=O)(=O)c1ccc(C(F)(F)F)cn1	-24.8%		9.2 µM [falling, partial curve, poor fit]
O=C(NC(=S)Nc1ccc(N2CCOCC2)cc1)c1ccc2c(c1)OCCO2	-16%		2.91 µM [rising, partial curve, poor fit]
Cc1ccc(C(=O)NCc2ccccc2F)cc1S(=O)(=O)N1CCCC1	-1.32%		
